A weaker result is weaker than the reference pair of the same experiment.
Molecular target: TOP3A 1001 (full-length) (Homo sapiens) (UniProt Q13472)
Experiment: EMSA
Conditions: no Mg2+ added, lower binding than TOP3A 917; 25 mM HEPES pH 7.5, 70 mM NaCl, 100 ug/ml BSA, 1 mM DTT, 10% glycerol, 10 fmol DNA in 20 ul, 37 C 15 min; 8% PAGE in 0.5x TBE at 4 C; recombinant protein; residues 16-1001; label: 5' 32P; single-stranded DNA

Chains of the proteins cited; added tags and fusions are not shown. Residues count along the entry.
UniProt Q13472, 16-1001: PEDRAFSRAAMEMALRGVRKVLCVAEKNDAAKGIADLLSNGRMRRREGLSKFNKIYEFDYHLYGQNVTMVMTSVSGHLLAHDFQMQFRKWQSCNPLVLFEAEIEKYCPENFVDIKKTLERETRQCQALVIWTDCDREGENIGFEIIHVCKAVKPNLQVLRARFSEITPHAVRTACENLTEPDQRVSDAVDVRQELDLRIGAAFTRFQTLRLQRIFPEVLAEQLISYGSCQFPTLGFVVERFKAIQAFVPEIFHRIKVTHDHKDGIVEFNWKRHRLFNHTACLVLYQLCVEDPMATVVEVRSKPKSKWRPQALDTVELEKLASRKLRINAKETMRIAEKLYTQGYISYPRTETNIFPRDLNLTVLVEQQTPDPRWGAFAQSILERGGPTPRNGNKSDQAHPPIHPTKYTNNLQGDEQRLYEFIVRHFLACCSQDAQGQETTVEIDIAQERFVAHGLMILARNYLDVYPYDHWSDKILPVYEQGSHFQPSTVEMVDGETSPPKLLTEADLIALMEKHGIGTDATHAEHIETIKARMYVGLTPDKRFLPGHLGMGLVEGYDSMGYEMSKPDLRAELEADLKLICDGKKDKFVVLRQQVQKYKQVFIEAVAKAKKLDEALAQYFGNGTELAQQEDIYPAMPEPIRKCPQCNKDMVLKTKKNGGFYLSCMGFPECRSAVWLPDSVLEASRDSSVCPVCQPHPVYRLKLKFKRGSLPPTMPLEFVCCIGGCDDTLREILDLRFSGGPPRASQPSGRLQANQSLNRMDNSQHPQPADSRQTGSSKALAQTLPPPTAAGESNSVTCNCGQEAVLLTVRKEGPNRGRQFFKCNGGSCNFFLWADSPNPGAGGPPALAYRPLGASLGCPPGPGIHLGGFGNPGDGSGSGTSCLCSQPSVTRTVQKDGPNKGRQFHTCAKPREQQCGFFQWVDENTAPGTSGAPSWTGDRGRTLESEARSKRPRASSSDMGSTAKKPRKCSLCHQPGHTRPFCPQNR

TGTTATTATTATGTCCTACAAGCATTAATTAATTAACACA [EMSA substrate (40 nt ssDNA)]
binding result: binds more weakly
